Results are given in words; binding and its absence hold for the method and conditions named. In cells and extracts the contact can be indirect. Binding can be weak; no strength is given. Where a sequence is shown, tags or fusion partners need not be part of it.
Target: T1, claudin-like apicomplexan microneme protein (CLAMP) fused to a 3xFlag tag (P. berghei)
T1 sequence: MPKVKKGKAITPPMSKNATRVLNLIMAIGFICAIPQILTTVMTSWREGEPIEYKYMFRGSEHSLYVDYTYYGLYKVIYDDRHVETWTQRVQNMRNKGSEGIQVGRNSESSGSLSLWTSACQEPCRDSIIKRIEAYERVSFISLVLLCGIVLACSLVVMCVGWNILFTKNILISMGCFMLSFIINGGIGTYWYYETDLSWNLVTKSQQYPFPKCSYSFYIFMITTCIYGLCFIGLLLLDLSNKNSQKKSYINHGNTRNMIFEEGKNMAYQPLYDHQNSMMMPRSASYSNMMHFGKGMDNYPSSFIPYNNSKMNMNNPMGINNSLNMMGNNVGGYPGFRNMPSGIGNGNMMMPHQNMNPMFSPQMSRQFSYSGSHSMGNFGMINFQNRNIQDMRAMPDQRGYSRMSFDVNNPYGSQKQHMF
Test: co-IP; anti-Flag IP from additional, independently prepared CLAMP-flag (untreated clampcKO) and control untagged sporozoite lysates, western blotting with anti-TRAP antibodies

B1: thrombospondin-related anonymous protein (TRAP, PBANKA_1349800) (protein, UniProt A0A509AST0 25-606)
chain: QEILDEIKYSEEVCNEQIDLHILLDGSGSIGHSNWISHVIPMLTTLVDNLNISRDEINISMTLFSTYARELVRLKRYGSTSKASLRFIIAQLQNNYSPHGTTNLTSALLNVDNLIQKKMNRPNAIQLVIILTDGIPNNLKKSTTVVNQLKKKDVNVAIIGVGAGVNNMFNRILVGCGKLGPCPYYSYGSWDQAQTMIKPFLSKVCQEVEKVALCGKWEEWSECSTTCDNGTKIRKRKVLHPNCAGEMTAPCKVRDCPPKPVAPPVIPIKVPDVPVKPVEPIEPAEPAEPAEPAEPAEPAEPAEPAEPAEPAEPAEPAEPAEPAEPAEPAEPAEPAEPAEPAKPAEPAEPAEPAEPAEPVNPDNPILPIKPEEPSGGAEPLNPEVENPFIIPDEPIEPIIAPGAVPDKPIIPEESNELPNNLPESPSDSQVEYPRPNDNGDNSNNTINSNKNIPNKHVPPTDDNPYKGQEERIPKPHRSNDEYIYYNNANNNDKLEPEIPSKDYEENKSKKQSKSNNGYKIAGGIIGGLAIIGCIGVGYNFIAGSSAAAMAGEAAPFEDVMADDEKGIVENEQFKLPEDNDWN
binding: binds

Source: publication PMC10047546
